Test results published in US9683018B2 (priority 2013, dated 2017).

Test: general procedure: Fmoc solid-phase peptide synthesis; 2-chlorotrityl chloride PS-resin (C-terminal acids); BAL-AM-PS-resin loaded with amines (C-terminal N-monosubstituted ca); HBTU/HOBt/NMM (manual synthesis, Example 2)

Row | Substance | isolated mass (whole synthesis, scale 0.10 mmol) | final HPLC purity (cyclisation step, 215 nm)
1 | pE-R-P-R-C*-S-H-K-G-P-Nle-C*-F-OH | 38.5 mg | –
2 | pE-R-P-R-hC*-S-H-K-G-P-(D-Nle)-C*-y-OH | – | >95%
